These are yes or no findings as the source states them, for the method shown. A result given as binding can be weak or reduced; the word gives no strength.
Biological target: T1, Pins Linker peptide (residues 427-445), pSer436, TMR-labelled (Drosophila) (UniProt Q9VB22)
T1 sequence (peptide, phosphoserine at 436; tetramethylrhodamine (TMR) on the N-terminus): GRMVRVRRQSMEQLDLIKI
Test: fluorescence polarisation; steady state anisotropy of 0.5 µM TMR-labelled Pins peptide (427-445) with increasing concentrations of Dlg constructs; 20 mM Tris pH 8, 100 mM NaCl, 1 mM DTT; nonlinear regression; both purified

binding: binds
Substance: Dlg GK domain with Y824 mutated (Drosophila) (domain or fragment)

Reference: article PMC3335814, “Structure of an Enzyme-Derived Phosphoprotein Recognition Domain” (PLoS ONE, 2012)
